{"source": "patent US20070129442A1", "about": "“N-arylhydrazine derivatives for seed treatment” (priority 2003, published 2007)", "tested_on": "wireworm, Agriotis lineatus (larvae)", "assay": "Corn rootworm, wireworm and seed corn maggot seed treatment assay (wireworm)", "type": "in vivo", "conditions": "251 g active ingredient per 100 kg of seed; treated corn seeds in sandy loam; evaluated seven days after planting; compared to the blank solvent-surfactant control", "note": "Some entries share one result that the patent states for a list of compounds."}
{"smiles": "CCN/C(=N\\Nc1c(Cl)cc(C(F)(F)F)cc1Cl)C(C)(C)C", "note": "[I-1, N-ethyl-2,2-dimethylpropionamide-2-(2,6-dichloro-α,α,α-trifluoro-p-tolyl)-hydrazone]", "values": [{"measurement": "protection of seed and seedling from wireworm feeding damage", "value": "over 30%"}]}
{"smiles": "CCN/C(=N\\Nc1c(Cl)cc(C(F)(F)F)cc1Cl)C1(C)CC1(Cl)Cl", "note": "(stereo not drawn) [I-2, N-Ethyl-2,2-dichloro-1-methylcyclopropanecarboxamide-2-(2,6-dichloro-α,α,α,α-tri-fluoro-p-tolyl)hydrazone]", "values": [{"measurement": "protection of seed and seedling from wireworm feeding damage", "value": "over 30%"}]}
